Test results as given in PMC11217462.
Results are given in words; binding and its absence hold for the method and conditions named. Binding seen in cells or lysates may run through a third protein. Some results given as binding are weak or reduced against the parent protein; the word gives no strength.

Chains of the proteins cited; added tags and fusions are not shown.
UniProt Q9Y4B6: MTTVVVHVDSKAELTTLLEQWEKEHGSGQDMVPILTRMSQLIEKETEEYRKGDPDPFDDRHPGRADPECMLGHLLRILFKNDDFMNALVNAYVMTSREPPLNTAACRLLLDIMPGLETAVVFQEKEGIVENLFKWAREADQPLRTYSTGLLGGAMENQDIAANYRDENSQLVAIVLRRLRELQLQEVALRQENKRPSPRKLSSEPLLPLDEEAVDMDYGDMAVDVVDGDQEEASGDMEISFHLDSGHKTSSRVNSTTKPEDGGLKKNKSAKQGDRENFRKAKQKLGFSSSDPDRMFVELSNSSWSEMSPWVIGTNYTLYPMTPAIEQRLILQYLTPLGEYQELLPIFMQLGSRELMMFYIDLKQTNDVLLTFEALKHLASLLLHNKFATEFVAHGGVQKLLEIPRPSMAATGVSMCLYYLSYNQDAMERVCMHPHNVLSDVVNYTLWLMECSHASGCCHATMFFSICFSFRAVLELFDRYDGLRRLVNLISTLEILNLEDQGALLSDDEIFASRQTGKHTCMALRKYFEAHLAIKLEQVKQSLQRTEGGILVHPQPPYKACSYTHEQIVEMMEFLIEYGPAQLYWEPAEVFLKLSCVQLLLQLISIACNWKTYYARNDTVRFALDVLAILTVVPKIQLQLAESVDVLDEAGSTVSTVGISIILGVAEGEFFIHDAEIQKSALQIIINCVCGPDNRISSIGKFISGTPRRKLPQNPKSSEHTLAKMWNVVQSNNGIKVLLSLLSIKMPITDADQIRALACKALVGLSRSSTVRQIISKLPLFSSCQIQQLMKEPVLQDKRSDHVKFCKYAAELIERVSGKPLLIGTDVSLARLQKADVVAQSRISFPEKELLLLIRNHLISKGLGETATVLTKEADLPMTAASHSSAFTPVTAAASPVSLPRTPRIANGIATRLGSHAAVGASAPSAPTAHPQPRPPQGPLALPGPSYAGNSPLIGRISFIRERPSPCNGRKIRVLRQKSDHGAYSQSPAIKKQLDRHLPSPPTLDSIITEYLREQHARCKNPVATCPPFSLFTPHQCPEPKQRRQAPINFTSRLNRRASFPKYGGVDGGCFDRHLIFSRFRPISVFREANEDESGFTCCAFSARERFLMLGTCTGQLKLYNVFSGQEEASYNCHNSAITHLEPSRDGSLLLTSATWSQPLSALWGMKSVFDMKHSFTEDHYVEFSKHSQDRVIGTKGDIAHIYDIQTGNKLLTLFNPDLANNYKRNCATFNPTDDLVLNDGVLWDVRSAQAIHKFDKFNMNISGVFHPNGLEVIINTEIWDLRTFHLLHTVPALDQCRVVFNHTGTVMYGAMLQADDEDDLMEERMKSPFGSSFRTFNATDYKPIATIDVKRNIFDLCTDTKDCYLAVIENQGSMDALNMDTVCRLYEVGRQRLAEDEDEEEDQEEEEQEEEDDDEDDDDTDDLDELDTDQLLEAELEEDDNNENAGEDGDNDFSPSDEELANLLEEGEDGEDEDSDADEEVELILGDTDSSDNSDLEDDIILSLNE

Legend:
[1] = biological target: 3xFLAG-tagged HIV-1 89.6 Vpr (HIV-1 (molecular clone 89.6)) (UniProt Q73369); experiment: co-IP; HEK 293T co-transfected with hPU.1 and 3xFLAG-89.6 Vpr; lysed in Pierce IP Lysis Buffer, anti-FLAG M2 magnetic beads, eluted with 3xFLAG peptide, immunoblot
[2] = biological target: 3xFLAG-tagged HIV-1 89.6 Vpr Q65R (HIV-1 (molecular clone 89.6)) (UniProt Q73369); experiment: co-IP; K562 transduced with lentiviruses for 3xFLAG-tagged Vpr, Vpr Q65R or Vpx (also K562 stably expressing shScramble or shDCAF1); endogenous PU.1 and DCAF1; anti-FLAG M2 magnetic beads, eluted with 3xFLAG peptide, immunoblot
[3] = biological target: 3xFLAG-tagged HIV-1 89.6 Vpr (HIV-1 (molecular clone 89.6)) (UniProt Q73369); experiment: as above
[4] = biological target: 3xFLAG-tagged HIV-1 89.6 Vpr (HIV-1 (molecular clone 89.6)) (UniProt Q73369); experiment: co-IP; primary human MDMs transduced with lentivirus for 3xFLAG-89.6 Vpr; endogenous PU.1 and DCAF1; anti-FLAG M2 magnetic beads, eluted with 3xFLAG peptide, immunoblot

DCAF1 (from UniProt Q9Y4B6 1-1507)
binding [1]: binds
binding [2]: no binding
binding [3]: binds
binding [4]: binds
